Test results: article PMC7281150, “Inspired by Sea Urchins: Warburg Effect Mediated Selectivity of Novel Synthetic Non-Glycoside 1,4-Naphthoquinone-6S-Glucose Conjugates in Prostate Cancer” (Marine Drugs, 2020)

Test system: 22Rv1 cells
Experiment: Proteomics (LC-MS/MS, DIA) of treated cells
Type: cell-based, human
Conditions: 22Rv1, 2 µM, 48 h

## 6-(1,2,3,4-Tetra-O-acetyl-6-deoxy-β-D-glucopyranos-6-ylthio)-5,8-dihydroxy-7-methyl-2,3-dimethoxy-1,4-naphthoquinone [SAB-13]
  number of downregulated proteins: 149 proteins
  number of upregulated proteins: 104 proteins
2163 proteins quantified
  number of significantly regulated proteins (1.5 ≤ fold change ≤ 1/1.5, p ≤ 0.05): 253 proteins
